The test system of this series is mice with EAE. The experiment in a line: EAE, CNS delivery of INF-γ at the recovery stage (doxycycline withdrawn at PID7). It is filed as in vivo. The source says: Double transgenic mice that allow for temporally regulated delivery of INF-γ to the CNS (Lin et al., J Neurosci 24:10074-10083 (2004)) were used to assess the role of INF-γ in the pathogenesis of EAE. GFAP/tTA; TRE/IFN-γ double transgenic mice, as described in Example 1 were used to determine the effect of INF-γ on the demyelination caused by EAE. All mice were fed doxycycline from the day of conception to repress the expression of INF-γ, and were immunized with myelin oligodendrocyte protein (MOG35-55) to induce EAE. At day 7 postimmunization (PID7), doxycycline was withdrawn from the experimental group (PID7 DOX−).
The level of INF-γ was determined in the control (DOX+) and the PID7 DOX− mice using an ELISA immunoassay as described in Example 1, and the severity of the disease was assessed as a function of a clinical score. Clinical severity scores were recorded daily according to a 0-5 point scale, where 0=healthy, 1=flaccid tail, 2=ataxia and/or paresis of hind limbs, 3=paralysis of hind limbs and/or paresis of forelimbs, 4=tetraparalysis, and 5=moribund or dead.
The spinal cord from DOX+ and DOX− animals with EAE was immunostained for MBP, and the remyelination of axons was evaluated. The number of oligodendrocytes was determined in the spine from DOX+ and DOX− mice as the number of CC1 positive cells. Axonal damage was evaluated by immunostaining of non-phosphorylated neurofilament-H. Antibodies to non-phosphorylated neurofilament-H were SMI32 diluted to 1:1000 and obtained from Stemberger Monoclonals.
INF-γ is known to induce MHC antigens and activate macrophages and T lymphocytes. The inflammatory effect of INF-γ was studied in the CNS during remyelination by determining the infiltration of T cells and macrophages, and measuring the expression of MHC-1, TNF-a, IL-2, IL-12 and IL-17. Immunohistochemistry was performed in tissues from the DOX+ and DOX− mice with EAE as described in Example 4. Experimental procedures were followed as described in the examples above.

Here are results for 1 substance from patent publication US8309790B2, “Animal models for demyelination disorders” (University of Chicago, priority 2005, dated 2012).

As to interferon-γ [IFN-γ], the “level of INF-γ (ELISA)” value is given as 40.24 pg/mg (DOX− mice, PID50); 60 pg/mg (both DOX+ and DOX− mice, peak of the disease PID17); 6.22 pg/mg (control DOX+ mice, PID50).
